This note sets out measurements from the supplement of paper PMC7877785.

This series can be described thus: self-splicing fitness, log relative to wild type (ln ratio); higher = more splicing; Tetrahymena group I intron in knt gene, E. coli kanamycin selection, DiMSum; sequences stand for … in CUCUCU…GGAGGGAAAAGUUAUCAGGCAUGCACCUGGUAGCUAGUCUUUAAACCAAUAGAUUGCAUCGGUUUAAAAGGCAAGACCGUCAAAUUGCGGGAAAGGGGUCAACAGCCGUUCAGUACCAAGUCUCAGGGGAAACUUUGAGAUGGCCUUGCAAAGGGUAUGGUAAUAAGCUGACGGACAUGGUCCUAACCACGCAGCCAAGUCCUAAGUCAACAGAUCUUCUGUUGAUAUGGAUGCAGUUCACAGACUAAAUGUCGGUCGGGGAAGAUGUAUUCUUCUCAUAAGAUAUAGUCGGACCUCUCCUUAAUGGGAGCUAGCGGAUGAAGUGAUGCAACACUGGAGCCGCUGGGAACUAAUUUGUAUGCGAAAGUAUAUUGAUUAGUUUUGGAGUACUCGUGGUCG
In outline: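 A randomised library covering all eight P1ex-region intron nucleotides was built with the intron in the knt kanamycin-resistance gene on pET-22b(+) and held in E. coli BL21(DE3). Cells were grown overnight at 37°C or 30°C on LB agar, with or without 25 μg/mL kanamycin, plus 100 μg/mL carbenicillin, 50 μM IPTG and 0.2% rhamnose, and pooled colonies were amplicon-sequenced on an Illumina HiSeq 2500. DiMSum fitness is the error-weighted combination of wild-type-normalised replicate fold changes, kanamycin versus none.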

± gives the uncertainty stated by the source. Many entries were measured with a wide error.

On to UCAUAGCAAUAUUACGCCCC, for which the “self-splicing fitness (ln)” value is, setting by setting: (30 °C) -2.25 ± 0.56; (37 °C) -2.08 ± 1.1.

CUGUAGCAAUAUUACGCGCA: the “self-splicing fitness (ln)” value (30 °C) was -2.23 ± 0.39 and the “self-splicing fitness (ln)” value (37 °C) is -2.52 ± 0.41.

For the sequence UCCCAGCAAUAUUACGAUAC, the “self-splicing fitness (ln)” value (30 °C) was -2.17 ± 0.19 and the “self-splicing fitness (ln)” value (37 °C) was -2.45 ± 0.44.

UAUGAGCAAUAUUACGGCAC: the “self-splicing fitness (ln)” value (37 °C) is -2.72 ± 0.61.

As to UGAGAGCAAUAUUACGCUUA, the “self-splicing fitness (ln)” value (30 °C) is -2.73 ± 0.56.

As for UACUAGCAAUAUUACGCACU, the “self-splicing fitness (ln)” value (30 °C) is -0.822 ± 0.068 and the “self-splicing fitness (ln)” value (37 °C) was found to be 0.229 ± 0.079.

For the sequence AAUGAGCAAUAUUACGAUGC, for the setting “37 °C”, the “self-splicing fitness (ln)” value was -1.96 ± 0.69.

Consider GUCAAGCAAUAUUACGUGGC, for which the “self-splicing fitness (ln)” value (37 °C) is -3.85 ± 0.51.

Take UUCCAGCAAUAUUACGAUGG: the “self-splicing fitness (ln)” value (37 °C) is -4.67 ± 0.72.

With GUGGAGCAAUAUUACGCACU, the “self-splicing fitness (ln)” value (37 °C) was -3.23 ± 0.75.

As to GGUGAGCAAUAUUACGCUAC, the “self-splicing fitness (ln)” value (37 °C) was -3.94 ± 0.59.

Regarding CUGGAGCAAUAUUACGGCAU, where the note is “37 °C”, the “self-splicing fitness (ln)” value was -1.73 ± 0.59.

Turning to CGUAAGCAAUAUUACGGCCC, the “self-splicing fitness (ln)” value (30 °C) was -2.5 ± 0.51.

GUGGAGCAAUAUUACGACGA: the “self-splicing fitness (ln)” value (30 °C) is -2.65 ± 0.7.

For the sequence AAUAAGCAAUAUUACGCUCG, the “self-splicing fitness (ln)” value (30 °C) is -0.686 ± 0.14 and the “self-splicing fitness (ln)” value (37 °C) was 0.0576 ± 0.19.

GGGAAGCAAUAUUACGGAAU: for the setting “30 °C”, the “self-splicing fitness (ln)” value is -3.91 ± 0.59.

Regarding UCCGAGCAAUAUUACGAGUU, for the setting “37 °C”, the “self-splicing fitness (ln)” value was -3.47 ± 0.52.

On to UCCAAGCAAUAUUACGGUGA, for which the “self-splicing fitness (ln)” value by setting is: (30 °C) -0.389 ± 0.054; (37 °C) 0.493 ± 0.077.

Consider AAGGAGCAAUAUUACGGAUC, for which, where the note is “30 °C”, the “self-splicing fitness (ln)” value is -2.64 ± 0.36.

With UCCGAGCAAUAUUACGAAUC, the “self-splicing fitness (ln)” value by setting is: (30 °C) -3.5 ± 1; (37 °C) -1.99 ± 0.66.

In the case of AGGAAGCAAUAUUACGAUAA, the “self-splicing fitness (ln)” value runs as follows: (30 °C) -1.9 ± 0.21; (37 °C) -1.33 ± 0.29.

Regarding UGAUAGCAAUAUUACGGUAU, the “self-splicing fitness (ln)” value (30 °C) is -3.75 ± 0.22 and the “self-splicing fitness (ln)” value (37 °C) is -1.92 ± 0.18.

AGGUAGCAAUAUUACGCAGU: the “self-splicing fitness (ln)” value was -2.979 ± 0.021 (30 °C) and -1.68 ± 0.035 (37 °C).

For GAGCAGCAAUAUUACGCCCA, the “self-splicing fitness (ln)” value was -0.299 ± 0.18 (30 °C) and 0.255 ± 0.26 (37 °C).

Consider GGAUAGCAAUAUUACGAAAA, for which the “self-splicing fitness (ln)” value (37 °C) is -0.728 ± 0.54.

As to CUGUAGCAAUAUUACGCAGC, the “self-splicing fitness (ln)” value (37 °C) is -3.67 ± 0.52.

On to UGUCAGCAAUAUUACGACUU, for which the “self-splicing fitness (ln)” value (30 °C) was -1.14 ± 0.1 and the “self-splicing fitness (ln)” value (37 °C) turned out to be 0.303 ± 0.16.

As to AUUGAGCAAUAUUACGAUGG, under “30 °C”, the “self-splicing fitness (ln)” value is -2.84 ± 0.25.

On to GUCAAGCAAUAUUACGCCCC, for which the “self-splicing fitness (ln)” value (37 °C) came out at 1.35 ± 1.1.

UUGGAGCAAUAUUACGUUGC: the “self-splicing fitness (ln)” value (30 °C) was -4.15 ± 0.74.

Consider CAAGAGCAAUAUUACGGAGA, for which the “self-splicing fitness (ln)” value is -2.57 ± 0.28 (30 °C) and -1.91 ± 0.22 (37 °C).

As to AUGUAGCAAUAUUACGUCCC, the “self-splicing fitness (ln)” value was -1.73 ± 0.17 (30 °C) and -1.02 ± 0.27 (37 °C).

Consider UCAAAGCAAUAUUACGGUCC, for which the “self-splicing fitness (ln)” value is -1.82 ± 0.53 (30 °C) and -2.73 ± 0.61 (37 °C).

With AACCAGCAAUAUUACGCGGA, the “self-splicing fitness (ln)” value (30 °C) was -2.05 ± 0.093 and the “self-splicing fitness (ln)” value (37 °C) was -0.49 ± 0.072.

As to GAUCAGCAAUAUUACGAGGC, the “self-splicing fitness (ln)” value (30 °C) is -3.49 ± 0.52.

With GCAGAGCAAUAUUACGGCUG, the “self-splicing fitness (ln)” value (37 °C) is -2.69 ± 0.62.

In the case of AGGUAGCAAUAUUACGGAAC, the “self-splicing fitness (ln)” value by setting is: (30 °C) -3.629 ± 0.035; (37 °C) -2.2 ± 0.042.

In the case of CUAAAGCAAUAUUACGCUCU, the “self-splicing fitness (ln)” value (37 °C) is -3.43 ± 1.

For the sequence ACCUAGCAAUAUUACGGCAA, the “self-splicing fitness (ln)” value (30 °C) is -1.41 ± 0.17 and the “self-splicing fitness (ln)” value (37 °C) came out at 0.02 ± 0.14.

Turning to GAGCAGCAAUAUUACGUCUC, the “self-splicing fitness (ln)” value is, setting by setting: (30 °C) -2.48 ± 0.15; (37 °C) -2.23 ± 0.22.

Take GAGUAGCAAUAUUACGAAGA: the “self-splicing fitness (ln)” value (37 °C) is -2.76 ± 0.54.

On to GAGCAGCAAUAUUACGAAUC, for which the “self-splicing fitness (ln)” value (30 °C) is -2.08 ± 0.07 and the “self-splicing fitness (ln)” value (37 °C) is -1.22 ± 0.083.

For the sequence CAGGAGCAAUAUUACGAUGA, the “self-splicing fitness (ln)” value (37 °C) is -3.73 ± 1.

GGGCAGCAAUAUUACGCUUC: for the setting “30 °C”, the “self-splicing fitness (ln)” value was -3.18 ± 0.52.

Turning to CGGGAGCAAUAUUACGGCCC, the “self-splicing fitness (ln)” value (37 °C) is -0.693 ± 1.4.

For ACAGAGCAAUAUUACGCAAC, under “30 °C”, the “self-splicing fitness (ln)” value was -2.5 ± 0.63.

As to AUGGAGCAAUAUUACGCCCG, the “self-splicing fitness (ln)” value is, setting by setting: (30 °C) -1.37 ± 0.73; (37 °C) -0.732 ± 0.68.
